Data taken from PMC5803261.
Results are given in words; binding and its absence hold for the method and conditions named. Binding seen in cells or lysates may run through a third protein. Some entries that bind do so weakly or less than the wild type.

Protein sequences, listed by entry. Tags and fused reporters are not part of them.
UniProt P31750: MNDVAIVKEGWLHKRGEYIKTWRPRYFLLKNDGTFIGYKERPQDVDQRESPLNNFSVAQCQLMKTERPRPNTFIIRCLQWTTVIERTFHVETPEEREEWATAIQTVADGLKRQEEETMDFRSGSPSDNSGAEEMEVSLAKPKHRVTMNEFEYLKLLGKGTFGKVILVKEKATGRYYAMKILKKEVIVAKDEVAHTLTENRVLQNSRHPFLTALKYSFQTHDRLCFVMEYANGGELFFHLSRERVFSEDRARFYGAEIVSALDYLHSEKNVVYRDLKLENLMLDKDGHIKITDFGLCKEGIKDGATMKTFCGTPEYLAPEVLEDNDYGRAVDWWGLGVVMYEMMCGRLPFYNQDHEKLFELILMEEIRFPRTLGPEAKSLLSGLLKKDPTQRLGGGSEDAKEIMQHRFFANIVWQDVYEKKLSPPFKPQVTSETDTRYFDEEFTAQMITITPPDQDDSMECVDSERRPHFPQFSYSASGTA
UniProt P26043: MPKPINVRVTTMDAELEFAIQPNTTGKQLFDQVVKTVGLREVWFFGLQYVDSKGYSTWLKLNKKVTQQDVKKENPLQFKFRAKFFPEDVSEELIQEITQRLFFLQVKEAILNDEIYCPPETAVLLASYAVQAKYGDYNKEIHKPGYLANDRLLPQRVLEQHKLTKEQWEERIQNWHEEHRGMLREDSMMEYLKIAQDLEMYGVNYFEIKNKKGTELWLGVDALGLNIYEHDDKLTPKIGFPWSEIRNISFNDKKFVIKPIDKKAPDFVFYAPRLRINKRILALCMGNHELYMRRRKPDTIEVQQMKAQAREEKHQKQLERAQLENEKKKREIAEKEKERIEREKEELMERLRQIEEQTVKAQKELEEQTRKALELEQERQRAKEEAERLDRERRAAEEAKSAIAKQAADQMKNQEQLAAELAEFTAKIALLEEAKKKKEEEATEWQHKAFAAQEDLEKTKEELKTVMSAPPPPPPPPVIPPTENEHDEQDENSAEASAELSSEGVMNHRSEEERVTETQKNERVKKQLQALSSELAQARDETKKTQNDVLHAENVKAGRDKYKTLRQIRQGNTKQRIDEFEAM

Target: Akt (Akt1), endogenous in P7 mouse brain lysate (mouse (endogenous in P7 mouse brain)) (UniProt P31750)
Experiment: co-IP; P7 mouse brain lysates, immunoprecipitation with anti-Akt antibody or normal IgG, blot with anti-Akt and anti-radixin

- binding: binds
Substance: radixin, endogenous in P7 mouse brain lysate (from UniProt P26043 1-583)
